Results on seven molecules are retold here after PubChem BioAssay AID330 (DTP/NCI, 2004).

For this experiment, the system named is P388 leukemia ip, CD2F1 mice, survival T/C. The experiment in a line: NCI In Vivo Anticancer Drug Screen. Data for tumor model P388 Leukemia (intraperitoneal) in CD2F1 (CDF1) mice. The settings on record: T/C endpoint: median survival time, higher T/C = longer survival.
The mark [1] stands for this setting: dose: 6.25 mg/kg/injection, schedule: Q01DX009 (ip), vehicle: saline with Tween-80.
[2] abbreviates: dose: 12.5 mg/kg/injection, schedule: Q01DX009 (ip), vehicle: saline with Tween-80.
[3] abbreviates: dose: 50.0 mg/kg/injection, schedule: Q01DX009 (ip), vehicle: saline with Tween-80.
[4] abbreviates: dose: 100.0 mg/kg/injection, schedule: Q01DX009 (ip), vehicle: saline with Tween-80.
The mark [5] stands for this setting: dose: 200.0 mg/kg/injection, schedule: Q01DX009 (ip), vehicle: saline with Tween-80.
The mark [6] stands for this setting: dose: 25.0 mg/kg/injection, schedule: Q01DX009 (ip), vehicle: saline with Tween-80.

The list is a part of this screen's results and no random one: it is rich in T/C values a quarter to a half above the control, in often repeated tests (any T/C) and in doses without a T/C. Other doses and runs of a compound stand elsewhere. T/C is the treated group as % of the vehicle group. Some entries give survivors of the animals treated and no T/C: the source holds a T/C of zero for them, seemingly a mark for toxic or unscored doses. Some survivor counts are full or nearly so, which does not show that the dose was tolerated: the source hardly ever lists a survival T/C far under the control, and the zero likely stands for such cases as well. Counts of survivors are from the toxicity check (mostly the fifth day) where no day follows; animals may have died later. Schedules are NCI's codes, read here as Q, the interval in days (D) or hours (H), X, the number of doses. For survival time, this PubChem deposit counts one and a half times the control or more as active, and values a quarter to a half above the control carry no call in these data; other NCI protocols may use other cut-offs.

Turning to `Clc1ccc(-c2n[se]c(-c3ccc(Cl)cc3)n2)cc1`, the survivor count reads like this: (dose: 3.12 mg/kg/injection, schedule: Q01DX009 (ip), vehicle: saline with Tween-80) 6 of 6; under setting [1], 6 of 6; under setting [2], 6 of 6; under setting [3], 6 of 6; under setting [4], 3 of 6; under setting [5], 0 of 6.

For the molecule `COc1ccc(/C(=C(\c2ccccc2)[N+](=O)[O-])c2ccc(OCCN3CCCC3)cc2)cc1`, the survivor count was 2 of 6 under setting [4] and 0 of 6 under setting [5].

For the molecule `ClCCN(CCCl)c1ccc(N=Cc2ccccc2)cc1`, the T/C under setting [1] is 133 % of control. Moreover, the survivor count runs as follows: under setting [1], 6 of 6; under setting [2], 6 of 6; under setting [6], 4 of 6; under setting [3], 2 of 6; under setting [4], 0 of 6; under setting [5], 0 of 6.

Regarding `[Br][Ga]([Br])[Br]`, the survivor count reads like this: (dose: 100.0 mg/kg/injection, schedule: Q01DX009 (ip), vehicle: saline) 5 of 6; (dose: 200.0 mg/kg/injection, schedule: Q04DX003 (ip), vehicle: saline sonified) 6 of 6; (dose: 400.0 mg/kg/injection, schedule: Q04DX003 (ip), vehicle: saline sonified) 6 of 6.

`S=C(N/N=C/c1ccc(Cl)s1)NC12CC3CC(CC(C3)C1)C2`: the survivor count by setting is: (dose: 60.0 mg/kg/injection, schedule: Q01DX005 (ip), vehicle: Klucel (hydroxypropylcellulose) (HPC)) 6 of 6; (dose: 120.0 mg/kg/injection, schedule: Q01DX005 (ip), vehicle: Klucel (hydroxypropylcellulose) (HPC)) 6 of 6.

For `CCOC(=O)/C=C(\Br)C(=O)OCC`, the survivor count is, setting by setting: under setting [2], 2 of 6; under setting [6], 0 of 6; under setting [3], 0 of 6; under setting [4], 0 of 6; under setting [5], 0 of 6.

For the molecule `Cc1ccccc1-c1cc2ccccc2c(N)n1`, the survivor count under setting [6] is given as 0 of 6.
